Results taken from US20160130324A1.
These are yes or no findings as the source states them, for the method shown. A result given as binding can be weak or reduced; the word gives no strength.

Molecular target: biotin-C1s
Experiment: functional ELISA: complex with biotin-C1s captured on streptavidin plate, detected with anti-C1-INH-HRP; plasma-derived C1-INH as positive control and reference

binding: binds
B1: plasma-derived C1-INH (protein)
chain: NPNATSSSSQDPESLQDRGEGKVATTVISKMLFVEPILEVSSLPTTNSTTNSATKITANTTDEPTTQPTTEPTTQPTIQPTQPTTQLPTDSPTQPTTGSFCPGPVTLCSDLESHSTEAVLGDALVDFSLKLYHAFSAMKKVETNMAFSPFSIASLLTQVLLGAGENTKTNLESILSYPKDFTCVHQALKGFTTKGVTSVSQIFHSPDLAIRDTFVNASRTLYSSSPRVLSNNSDANLELINTWVAKNTNNKISRLLDSLPSDTRLVLLNAIYLSAKWKTTFDPKKTRMEPFHFKNSVIKVPMMNSKKYPVAHFIDQTLKAKVGQLQLSHNLSLVILVPQNLKHRLEDMEQALSPSVFKAIMEKLEMSKFQPTLLTLPRIKVTTSQDMLSIMEKLEFFDFSYDLNLCGLTEDPDLQVSAMQHQTVLELTETGVEAAAASAISVARTLLVFEVQQPFLFVLWDQQHKFPVFMGRVYDPRA
